Measured values as given in the supplement of paper PMC10849652.
Some of the results follow.

Protein sequences, listed by entry. Tags and fused reporters are not part of them. Lines headed by an entry give the natural chain unless they say otherwise; changes in a name come on top.
UniProt Q2TB90: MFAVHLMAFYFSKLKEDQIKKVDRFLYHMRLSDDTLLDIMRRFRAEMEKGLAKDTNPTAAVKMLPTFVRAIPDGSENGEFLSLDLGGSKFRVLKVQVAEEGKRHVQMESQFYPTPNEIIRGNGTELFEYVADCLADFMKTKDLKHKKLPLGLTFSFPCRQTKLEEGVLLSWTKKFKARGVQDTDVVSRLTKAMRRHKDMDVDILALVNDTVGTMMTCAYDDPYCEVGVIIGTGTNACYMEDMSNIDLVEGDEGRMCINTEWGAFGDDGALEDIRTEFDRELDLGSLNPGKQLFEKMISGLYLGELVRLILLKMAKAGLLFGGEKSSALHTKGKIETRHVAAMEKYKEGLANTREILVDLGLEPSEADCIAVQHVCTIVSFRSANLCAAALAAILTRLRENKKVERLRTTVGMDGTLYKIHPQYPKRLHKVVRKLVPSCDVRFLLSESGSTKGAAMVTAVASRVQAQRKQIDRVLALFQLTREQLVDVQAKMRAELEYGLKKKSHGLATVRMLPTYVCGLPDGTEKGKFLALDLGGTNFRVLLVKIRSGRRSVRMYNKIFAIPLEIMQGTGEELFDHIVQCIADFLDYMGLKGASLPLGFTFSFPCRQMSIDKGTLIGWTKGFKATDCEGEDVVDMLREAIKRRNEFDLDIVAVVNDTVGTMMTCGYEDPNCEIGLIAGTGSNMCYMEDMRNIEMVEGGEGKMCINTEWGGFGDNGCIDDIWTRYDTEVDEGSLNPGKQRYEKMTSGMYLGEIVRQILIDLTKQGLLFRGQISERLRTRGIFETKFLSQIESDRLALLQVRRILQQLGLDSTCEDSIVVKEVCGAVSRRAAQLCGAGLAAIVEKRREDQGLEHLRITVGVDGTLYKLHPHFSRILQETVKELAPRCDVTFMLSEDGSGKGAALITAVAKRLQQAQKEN
UniProt P14735, whole entry, looked up: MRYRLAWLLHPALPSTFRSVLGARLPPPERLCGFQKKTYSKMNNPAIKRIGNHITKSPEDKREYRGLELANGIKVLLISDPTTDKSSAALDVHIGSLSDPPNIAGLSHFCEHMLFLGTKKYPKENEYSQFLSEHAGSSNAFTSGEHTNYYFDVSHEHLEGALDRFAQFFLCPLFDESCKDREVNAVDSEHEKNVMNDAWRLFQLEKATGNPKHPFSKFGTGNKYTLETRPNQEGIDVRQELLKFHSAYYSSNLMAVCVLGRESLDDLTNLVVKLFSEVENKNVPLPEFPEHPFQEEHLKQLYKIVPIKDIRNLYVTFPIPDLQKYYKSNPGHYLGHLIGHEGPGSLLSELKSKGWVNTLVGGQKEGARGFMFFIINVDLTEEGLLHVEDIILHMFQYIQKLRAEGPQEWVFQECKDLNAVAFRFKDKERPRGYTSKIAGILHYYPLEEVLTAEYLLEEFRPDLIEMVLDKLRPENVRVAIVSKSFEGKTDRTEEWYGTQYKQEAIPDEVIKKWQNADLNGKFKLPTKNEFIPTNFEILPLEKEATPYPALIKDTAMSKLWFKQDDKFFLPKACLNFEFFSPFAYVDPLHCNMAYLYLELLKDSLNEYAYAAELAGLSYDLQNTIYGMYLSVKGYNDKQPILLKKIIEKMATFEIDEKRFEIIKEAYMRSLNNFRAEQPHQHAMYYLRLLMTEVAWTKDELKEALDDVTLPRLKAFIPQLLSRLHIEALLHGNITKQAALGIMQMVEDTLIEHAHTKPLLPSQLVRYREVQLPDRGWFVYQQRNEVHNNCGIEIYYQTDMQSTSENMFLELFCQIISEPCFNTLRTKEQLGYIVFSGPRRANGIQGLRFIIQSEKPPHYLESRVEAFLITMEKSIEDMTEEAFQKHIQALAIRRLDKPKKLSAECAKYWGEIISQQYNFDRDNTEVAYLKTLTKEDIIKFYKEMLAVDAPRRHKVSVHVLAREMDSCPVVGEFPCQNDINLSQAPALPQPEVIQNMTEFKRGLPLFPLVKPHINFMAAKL
UniProt P56937: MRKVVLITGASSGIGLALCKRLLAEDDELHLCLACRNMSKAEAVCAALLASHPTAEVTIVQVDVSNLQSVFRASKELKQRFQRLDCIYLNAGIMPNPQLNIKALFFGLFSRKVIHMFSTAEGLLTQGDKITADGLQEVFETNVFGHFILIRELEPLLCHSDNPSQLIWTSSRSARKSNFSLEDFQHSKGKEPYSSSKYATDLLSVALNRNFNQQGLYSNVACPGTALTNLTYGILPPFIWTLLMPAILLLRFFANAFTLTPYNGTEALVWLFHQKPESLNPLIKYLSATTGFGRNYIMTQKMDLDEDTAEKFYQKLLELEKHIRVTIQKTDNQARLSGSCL
UniProt Q9BTY7: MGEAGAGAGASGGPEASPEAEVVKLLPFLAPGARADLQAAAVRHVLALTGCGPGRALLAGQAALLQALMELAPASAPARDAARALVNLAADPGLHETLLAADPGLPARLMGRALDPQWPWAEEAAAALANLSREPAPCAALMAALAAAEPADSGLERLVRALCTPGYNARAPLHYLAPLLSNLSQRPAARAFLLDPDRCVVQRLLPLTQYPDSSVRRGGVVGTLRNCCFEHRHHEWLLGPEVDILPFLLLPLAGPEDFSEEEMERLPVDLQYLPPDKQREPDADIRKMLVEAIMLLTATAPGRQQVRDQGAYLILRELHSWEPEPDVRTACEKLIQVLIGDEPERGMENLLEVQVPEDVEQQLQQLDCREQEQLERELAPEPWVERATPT
UniProt P10809, whole entry, looked up: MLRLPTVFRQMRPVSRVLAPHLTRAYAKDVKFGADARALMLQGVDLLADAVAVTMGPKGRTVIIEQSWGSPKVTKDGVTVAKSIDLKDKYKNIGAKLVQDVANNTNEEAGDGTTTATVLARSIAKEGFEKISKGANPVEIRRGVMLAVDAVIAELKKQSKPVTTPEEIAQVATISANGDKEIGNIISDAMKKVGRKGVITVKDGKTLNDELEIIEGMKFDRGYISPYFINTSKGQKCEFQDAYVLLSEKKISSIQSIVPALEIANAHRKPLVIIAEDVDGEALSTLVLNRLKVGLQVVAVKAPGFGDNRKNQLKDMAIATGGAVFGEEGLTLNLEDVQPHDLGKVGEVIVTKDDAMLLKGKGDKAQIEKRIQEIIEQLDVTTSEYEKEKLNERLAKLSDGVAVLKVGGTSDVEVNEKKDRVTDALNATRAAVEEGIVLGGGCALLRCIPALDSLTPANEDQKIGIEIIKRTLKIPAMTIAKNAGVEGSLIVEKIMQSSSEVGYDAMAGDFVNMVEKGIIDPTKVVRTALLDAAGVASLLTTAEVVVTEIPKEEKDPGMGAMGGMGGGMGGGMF
UniProt Q99729: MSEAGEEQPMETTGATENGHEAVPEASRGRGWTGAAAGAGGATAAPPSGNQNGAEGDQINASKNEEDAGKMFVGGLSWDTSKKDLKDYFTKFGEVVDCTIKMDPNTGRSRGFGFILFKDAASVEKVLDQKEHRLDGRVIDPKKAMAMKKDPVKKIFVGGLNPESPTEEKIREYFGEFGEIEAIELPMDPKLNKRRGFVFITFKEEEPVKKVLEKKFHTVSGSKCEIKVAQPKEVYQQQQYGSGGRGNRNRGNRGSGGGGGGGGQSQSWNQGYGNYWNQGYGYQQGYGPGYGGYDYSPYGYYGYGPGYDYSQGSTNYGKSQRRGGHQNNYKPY
UniProt Q6YN16: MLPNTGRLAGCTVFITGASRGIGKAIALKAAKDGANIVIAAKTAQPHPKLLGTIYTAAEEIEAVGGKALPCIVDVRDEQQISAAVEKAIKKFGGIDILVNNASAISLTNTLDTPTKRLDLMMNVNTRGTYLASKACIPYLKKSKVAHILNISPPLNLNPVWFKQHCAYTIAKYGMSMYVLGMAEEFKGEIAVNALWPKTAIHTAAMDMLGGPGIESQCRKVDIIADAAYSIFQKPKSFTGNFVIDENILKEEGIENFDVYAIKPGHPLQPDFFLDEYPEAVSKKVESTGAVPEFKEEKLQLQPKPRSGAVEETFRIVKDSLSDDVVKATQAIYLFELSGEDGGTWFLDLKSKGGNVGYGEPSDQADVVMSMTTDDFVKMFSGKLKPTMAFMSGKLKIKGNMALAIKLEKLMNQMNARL
UniProt Q14773: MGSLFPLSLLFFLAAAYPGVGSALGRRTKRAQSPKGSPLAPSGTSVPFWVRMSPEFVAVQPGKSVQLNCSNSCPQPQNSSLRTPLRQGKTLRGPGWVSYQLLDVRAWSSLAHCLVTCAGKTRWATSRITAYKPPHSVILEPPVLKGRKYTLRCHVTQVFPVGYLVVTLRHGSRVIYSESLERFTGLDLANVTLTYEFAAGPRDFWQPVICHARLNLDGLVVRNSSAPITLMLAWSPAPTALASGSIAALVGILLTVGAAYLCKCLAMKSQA
UniProt P19367: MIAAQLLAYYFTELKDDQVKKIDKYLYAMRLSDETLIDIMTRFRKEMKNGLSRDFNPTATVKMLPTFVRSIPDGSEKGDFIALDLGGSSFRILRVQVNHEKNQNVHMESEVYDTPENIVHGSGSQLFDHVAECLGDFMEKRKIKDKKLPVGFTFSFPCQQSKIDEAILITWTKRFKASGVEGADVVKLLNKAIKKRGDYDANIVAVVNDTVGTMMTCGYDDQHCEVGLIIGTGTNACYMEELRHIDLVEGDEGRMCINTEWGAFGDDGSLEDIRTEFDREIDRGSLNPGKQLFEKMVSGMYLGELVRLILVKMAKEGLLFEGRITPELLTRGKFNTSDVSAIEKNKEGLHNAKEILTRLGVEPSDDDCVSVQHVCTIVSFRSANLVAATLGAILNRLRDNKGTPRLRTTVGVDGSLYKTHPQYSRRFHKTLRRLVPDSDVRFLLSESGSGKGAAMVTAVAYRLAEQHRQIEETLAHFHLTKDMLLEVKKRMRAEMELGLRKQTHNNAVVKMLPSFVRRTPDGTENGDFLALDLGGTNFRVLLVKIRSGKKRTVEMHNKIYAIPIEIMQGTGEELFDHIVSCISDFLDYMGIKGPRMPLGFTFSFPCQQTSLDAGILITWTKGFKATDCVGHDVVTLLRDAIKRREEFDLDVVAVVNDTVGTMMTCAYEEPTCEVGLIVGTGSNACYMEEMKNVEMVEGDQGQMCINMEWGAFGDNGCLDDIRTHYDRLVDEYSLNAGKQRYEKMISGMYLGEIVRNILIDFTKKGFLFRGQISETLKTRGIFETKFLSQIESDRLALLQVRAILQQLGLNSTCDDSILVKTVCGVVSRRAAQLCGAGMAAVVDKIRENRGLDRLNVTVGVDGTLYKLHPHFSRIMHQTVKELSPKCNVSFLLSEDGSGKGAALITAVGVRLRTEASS
UniProt P38646: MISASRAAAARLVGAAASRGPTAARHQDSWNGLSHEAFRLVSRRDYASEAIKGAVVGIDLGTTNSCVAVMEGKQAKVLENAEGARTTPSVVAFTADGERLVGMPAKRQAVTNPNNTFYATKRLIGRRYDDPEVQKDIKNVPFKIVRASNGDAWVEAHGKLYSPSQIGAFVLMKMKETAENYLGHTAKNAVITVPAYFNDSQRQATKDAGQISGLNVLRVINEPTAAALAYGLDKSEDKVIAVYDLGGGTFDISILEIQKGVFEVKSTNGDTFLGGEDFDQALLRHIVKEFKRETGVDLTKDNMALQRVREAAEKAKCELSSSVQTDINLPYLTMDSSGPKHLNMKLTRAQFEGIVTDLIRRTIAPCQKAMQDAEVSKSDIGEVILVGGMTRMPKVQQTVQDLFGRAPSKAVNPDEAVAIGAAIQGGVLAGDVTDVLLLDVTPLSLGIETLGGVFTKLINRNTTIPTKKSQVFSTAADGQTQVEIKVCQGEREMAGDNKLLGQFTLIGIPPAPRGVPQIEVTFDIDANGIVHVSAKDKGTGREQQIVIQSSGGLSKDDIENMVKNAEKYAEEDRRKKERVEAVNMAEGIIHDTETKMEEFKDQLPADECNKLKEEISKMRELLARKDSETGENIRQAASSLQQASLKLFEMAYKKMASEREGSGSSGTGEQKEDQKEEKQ
UniProt Q0VDF9: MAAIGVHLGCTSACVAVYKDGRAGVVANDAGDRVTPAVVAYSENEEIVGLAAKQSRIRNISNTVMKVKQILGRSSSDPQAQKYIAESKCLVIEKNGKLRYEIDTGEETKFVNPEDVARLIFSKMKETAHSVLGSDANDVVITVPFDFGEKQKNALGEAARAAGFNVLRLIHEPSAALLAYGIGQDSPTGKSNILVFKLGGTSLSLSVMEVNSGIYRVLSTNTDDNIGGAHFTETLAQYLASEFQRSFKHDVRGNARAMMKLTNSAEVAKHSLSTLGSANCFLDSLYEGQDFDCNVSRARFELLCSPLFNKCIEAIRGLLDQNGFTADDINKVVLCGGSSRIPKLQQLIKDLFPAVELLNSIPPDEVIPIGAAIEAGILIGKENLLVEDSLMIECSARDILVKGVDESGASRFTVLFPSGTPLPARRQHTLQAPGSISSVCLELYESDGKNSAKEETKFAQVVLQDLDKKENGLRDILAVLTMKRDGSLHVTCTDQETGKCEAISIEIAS
UniProt P09429: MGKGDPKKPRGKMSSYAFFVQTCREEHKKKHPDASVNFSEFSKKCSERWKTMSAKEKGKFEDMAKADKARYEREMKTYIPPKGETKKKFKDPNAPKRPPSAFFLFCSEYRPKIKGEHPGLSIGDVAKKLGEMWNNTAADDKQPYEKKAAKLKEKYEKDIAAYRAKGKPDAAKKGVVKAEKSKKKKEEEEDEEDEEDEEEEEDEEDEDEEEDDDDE

Tests used:
Assay in all cases: log2 fold change, soluble protein after heating vs DMSO (PISA); higher = thermal stabilisation; K562 cells, 10 uM, 30 min; active = over 0.2 and 3.5 SD of the protein, either way, in both replicates (recomputed)
[1] = compound: CC[C@@H]1C(=O)N(C)c2cnc(Nc3ccc(C(=O)NC4CCN(C)CC4)cc3OC)nc2N1C1CCCC1
How it was run: (§1)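 K562 cells at 2×10^6 cells/mL were given 10 μM compound for 30 min. Aliquots then went through 3 min of heating across 48°C-58°C, were pooled, and were extracted in PBS with 0.5% NP-40 at 4°C, and the supernatant after 21,000xg for 90 min was quantified by TMTpro 16plex LC-MS/MS with channel sums equalised. Thermal stability relative to control samples, from duplicates, is given as log2 fold change.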

volasertib = compound: CC[C@@H]1C(=O)N(C)c2cnc(Nc3ccc(C(=O)N[C@H]4CC[C@H](N5CCN(CC6CC6)CC5)CC4)cc3OC)nc2N1C(C)C [volasertib]
How it was run: as §1

[2] = compound: CC[C@H](C)N1C=C(C2=C(C=C(C=C21)C3=CN=C(C=C3)N4CCNCC4)C(=O)NCC5=C(C=C(NC5=O)C)C)C
How it was run: as §1

epoxomicin = compound: CC[C@H](C)[C@@H](C(=O)N[C@@H]([C@@H](C)O)C(=O)N[C@@H](CC(C)C)C(=O)[C@]1(CO1)C)NC(=O)[C@H]([C@@H](C)CC)N(C)C(=O)C [epoxomicin]
How it was run: as §1

[3] = compound: CCn1c(C(=O)N(C2CC2)C2CC2)cc2c3c(ncn3C)c(Nc3cc(C)n(C)n3)nc21
How it was run: as §1

[4] = compound: CCn1cc(-c2ccnc3[nH]c(-c4cccc(CN(C)C)c4)cc23)c(-c2ccc(NC(=O)N(C)C)cc2)n1
How it was run: as §1

[5] = compound: CN(C)CC(=O)Nc1ccc2[nH]c(=O)c3ccccc3c2c1
How it was run: as §1

rosiglitazone = compound: CN(CCOC1=CC=C(C=C1)C[C@H]2C(=O)NC(=O)S2)C3=CC=CC=N3 (racemic) [rosiglitazone]
How it was run: as §1

[6] = compound: CN1C2=C(C3=C1C(=O)N(N=C3)CC4=CC(=CC=C4)N)SC(=C2)S(=O)C
How it was run: as §1

[7] = compound: CN1CCC(CNc2ccc3ncc(-c4cccc(OC(F)(F)F)c4)n3n2)CC1
How it was run: as §1

saracatinib = compound: CN1CCN(CCOc2cc(OC3CCOCC3)c3c(Nc4c(Cl)ccc5c4OCO5)ncnc3c2)CC1 [saracatinib]
How it was run: as §1

sotrastaurin = compound: CN1CCN(c2nc(C3=C(c4c[nH]c5ccccc45)C(=O)NC3=O)c3ccccc3n2)CC1 [sotrastaurin]
How it was run: as §1

alvocidib = compound: CN1CC[C@H](c2c(O)cc(O)c3c(=O)cc(-c4ccccc4Cl)oc23)[C@H](O)C1 [alvocidib]
How it was run: as §1

Tubastatin A = compound: CN1CCc2c(c3ccccc3n2Cc2ccc(C(=O)NO)cc2)C1 [Tubastatin A]
How it was run: as §1

[8] = compound: CNC(=O)C1=CC=CC=C1NC2=NC(=NC=C2Cl)NC3=C(C=C(C=C3)N4CCOCC4)OC
How it was run: as §1

defactinib = compound: CNC(=O)c1ccc(Nc2ncc(C(F)(F)F)c(NCc3nccnc3N(C)S(C)(=O)=O)n2)cc1 [defactinib]
How it was run: as §1

rucaparib = compound: CNCc1ccc(-c2[nH]c3cc(F)cc4c3c2CCNC4=O)cc1 [rucaparib]
How it was run: as §1

[9] = compound: CNc1nc(-c2ccc3c(N)n[nH]c3c2)cc(N2C[C@@H](C(=O)NC3CCCCC3)CC[C@H]2C)n1
How it was run: as §1

encorafenib = compound: COC(=O)N[C@@H](C)CNc1nccc(-c2cn(C(C)C)nc2-c2cc(Cl)cc(NS(C)(=O)=O)c2F)n1 [encorafenib]
How it was run: as §1

[10] = compound: COC(=O)[C@H](CCSC)NC(=O)C1=C(C=C(C=C1)NC[C@H](CS)N)C2=CC=CC=C2
How it was run: as §1

Measured: log2 fold change

HKDC1 (UniProt Q2TB90)
inactive: [1] -0.034 | volasertib -0.211 | [2] -0.011 | epoxomicin 0.005 | [3] -0.023 | [4] 0.044 | [5] 0.047 | rosiglitazone 0.051 | [6] 0.004 | [7] 0.026 | saracatinib 0.038 | sotrastaurin 0.046 | alvocidib -0.052 | Tubastatin A -0.047 | [8] -0.075 | defactinib -0.039 | rucaparib -0.032 | [9] -0.006 | encorafenib 0.028 | [10] -0.046

IDE (UniProt P14735)
inactive: [1] 0.056 | volasertib -0.063 | [2] 0.073 | epoxomicin 0.081 | [3] -0.088 | [4] -0.077 | [5] 0.043 | rosiglitazone 0.055 | [6] 0.042 | [7] -0.053 | saracatinib -0.08 | sotrastaurin -0.001 | alvocidib -0.109 | Tubastatin A 0.023 | [8] -0.031 | defactinib -0.028 | rucaparib 0.029 | [9] 0.023 | encorafenib 0.009 | [10] -0.031

HSD17B7 (UniProt P56937)
inactive: [1] -0.08 | volasertib -0.112 | [2] 0.065 | epoxomicin 0.047 | [3] 0.016 | [4] -0.04 | [5] -0.032 | rosiglitazone 0.049 | [6] -0.035 | [7] -0.126 | saracatinib -0.004 | sotrastaurin -0.031 | alvocidib -0.195 | Tubastatin A 0.012 | [8] 0.048 | defactinib 0.017 | rucaparib -0.113 | [9] -0.014 | encorafenib 0.059 | [10] -0.018

HGH1 (UniProt Q9BTY7)
inactive: [1] -0.055 | volasertib -0.221 | [2] 0.075 | epoxomicin 0.032 | [3] -0.137 | [4] 0.036 | [5] -0.106 | rosiglitazone 0.111 | [6] 0.144 | [7] -0.026 | saracatinib -0.125 | sotrastaurin -0.111 | alvocidib 0.012 | Tubastatin A 0.076 | [8] -0.01 | defactinib 0.025 | rucaparib 0.278 | [9] -0.058 | encorafenib 0.151 | [10] -0.064

HSPD1 (UniProt P10809)
inactive: [1] -0.011 | volasertib 0.094 | [2] -0.048 | epoxomicin 0.013 | [3] 0.003 | [4] 0.043 | [5] -0.02 | rosiglitazone -0.003 | [6] -0.033 | [7] 0.021 | saracatinib 0.005 | sotrastaurin 0.038 | alvocidib 0.008 | Tubastatin A -0.025 | [8] -0.007 | defactinib 0.009 | rucaparib -0.01 | [9] -0.053 | encorafenib -0.023 | [10] 0.03

HSF1 (UniProt Q00613)
inactive: [1] -0.155 | volasertib -0.324 | [2] 0.056 | epoxomicin -0.023 | [3] -0.139 | [4] -0.222 | [5] 0.221 | rosiglitazone 0.156 | [6] 0.01 | [7] -0.322 | saracatinib -0.022 | sotrastaurin -0.335 | alvocidib -0.144 | Tubastatin A 0.184 | [8] -0.008 | defactinib -0.222 | rucaparib -0.086 | [9] -0.019 | encorafenib 0.105 | [10] -0.002

Reprinted from above (3 entries):
HGH1 (UniProt Q9BTY7)
inactive: [1] -0.055 | volasertib -0.221 | [2] 0.075 | epoxomicin 0.032 | [3] -0.137 | [4] 0.036 | [5] -0.106 | rosiglitazone 0.111 | [6] 0.144 | [7] -0.026 | saracatinib -0.125 | sotrastaurin -0.111 | alvocidib 0.012 | Tubastatin A 0.076 | [8] -0.01 | defactinib 0.025 | rucaparib 0.278 | [9] -0.058 | encorafenib 0.151 | [10] -0.064

HSPD1 (UniProt P10809)
inactive: [1] -0.011 | volasertib 0.094 | [2] -0.048 | epoxomicin 0.013 | [3] 0.003 | [4] 0.043 | [5] -0.02 | rosiglitazone -0.003 | [6] -0.033 | [7] 0.021 | saracatinib 0.005 | sotrastaurin 0.038 | alvocidib 0.008 | Tubastatin A -0.025 | [8] -0.007 | defactinib 0.009 | rucaparib -0.01 | [9] -0.053 | encorafenib -0.023 | [10] 0.03

HSF1 (UniProt Q00613)
inactive: [1] -0.155 | volasertib -0.324 | [2] 0.056 | epoxomicin -0.023 | [3] -0.139 | [4] -0.222 | [5] 0.221 | rosiglitazone 0.156 | [6] 0.01 | [7] -0.322 | saracatinib -0.022 | sotrastaurin -0.335 | alvocidib -0.144 | Tubastatin A 0.184 | [8] -0.008 | defactinib -0.222 | rucaparib -0.086 | [9] -0.019 | encorafenib 0.105 | [10] -0.002

The list goes on.

HUWE1 (UniProt Q7Z6Z7)
inactive: [1] -0.011 | volasertib -0.089 | [2] 0.035 | epoxomicin 0.029 | [3] -0.017 | [4] -0.025 | [5] 0.011 | rosiglitazone 0.028 | [6] -0.029 | [7] -0.037 | saracatinib 0.01 | sotrastaurin -0.04 | alvocidib -0.044 | Tubastatin A 0.012 | [8] 0.025 | defactinib -0.032 | rucaparib -0.006 | [9] -0.003 | encorafenib 0.021 | [10] -0.001

HNRNPAB isoform 3 (UniProt Q99729)
inactive: [1] 0.29 | volasertib 0.243 | [2] -0.066 | epoxomicin -0.151 | [3] -0.03 | [4] 0.207 | [5] -0.086 | rosiglitazone -0.129 | [6] 0.203 | [7] 0.247 | saracatinib 0.066 | sotrastaurin 0.069 | alvocidib 0.254 | Tubastatin A 0.015 | [8] 0.041 | defactinib 0.315 | rucaparib 0.224 | [9] -0.023 | encorafenib 0.024 | [10] 0.024

HSDL2 (UniProt Q6YN16)
inactive: [1] -0.015 | volasertib -0.115 | [2] 0.057 | epoxomicin 0.077 | [3] 0.013 | [4] -0.148 | [5] 0.017 | rosiglitazone 0.09 | [6] -0.055 | [7] -0.129 | saracatinib -0.035 | sotrastaurin -0.062 | alvocidib -0.125 | Tubastatin A 0.017 | [8] 0.027 | defactinib -0.086 | rucaparib -0.007 | [9] 0.062 | encorafenib 0.001 | [10] -0.074

HINT3 (UniProt Q9NQE9)
inactive: [1] -0.028 | volasertib -0.006 | [2] -0.025 | epoxomicin -0.028 | [3] -0.026 | [4] -0.041 | [5] 0.011 | rosiglitazone -0.029 | [6] -0.033 | [7] -0.161 | saracatinib -0.009 | sotrastaurin -0.005 | alvocidib -0.024 | Tubastatin A 0.018 | [8] -0.037 | defactinib -0.039 | rucaparib 0.029 | [9] 0.007 | encorafenib -0.037 | [10] 0.037

ICAM4 (UniProt Q14773)
inactive: [1] -0.015 | volasertib -0.07 | [2] 0.039 | epoxomicin 0.101 | [3] 0.026 | [4] -0.018 | [5] 0.122 | rosiglitazone 0.059 | [6] 0.023 | [7] -0.025 | saracatinib -0.116 | sotrastaurin -0.042 | alvocidib -0.016 | Tubastatin A 0.101 | [8] -0.052 | defactinib -0.082 | rucaparib 0.037 | [9] -0.028 | encorafenib 0.037 | [10] -0.007

HK1 isoform 2 (UniProt P19367)
inactive: [1] -0.02 | volasertib -0.252 | [2] -0.012 | epoxomicin 0.015 | [3] -0.045 | [4] 0 | [5] -0.018 | rosiglitazone 0.02 | [6] -0.046 | [7] -0.022 | saracatinib -0.001 | sotrastaurin 0.005 | alvocidib -0.009 | Tubastatin A -0.032 | [8] -0.105 | defactinib -0.005 | rucaparib -0.032 | [9] -0.083 | encorafenib 0.004 | [10] 0.022

HSPA9 (UniProt P38646)
inactive: [1] -0.07 | volasertib 0.022 | [2] -0.033 | epoxomicin 0.028 | [3] 0.025 | [4] 0.063 | [5] -0.014 | rosiglitazone -0.011 | [6] -0.038 | [7] 0.007 | saracatinib 0.031 | sotrastaurin 0.023 | alvocidib 0.009 | Tubastatin A -0.025 | [8] 0.054 | defactinib 0.014 | rucaparib -0.004 | [9] -0.044 | encorafenib -0.027 | [10] 0.037

HSPA14 (UniProt Q0VDF9)
inactive: [1] -0.025 | volasertib -0.278 | [2] 0.11 | epoxomicin -0.002 | [3] -0.092 | [4] -0.046 | [5] 0.014 | rosiglitazone 0.073 | [6] 0.093 | [7] -0.113 | saracatinib -0.045 | sotrastaurin -0.131 | alvocidib -0.022 | Tubastatin A 0.011 | [8] -0.05 | defactinib -0.016 | rucaparib 0.14 | [9] 0.014 | encorafenib 0.102 | [10] -0.058

HMGB1 (UniProt P09429)
inactive: [1] -0.077 | volasertib 0.069 | [2] 0.032 | epoxomicin 0.062 | [3] 0.005 | [4] -0.011 | [5] 0.003 | rosiglitazone -0.015 | [6] -0.037 | [7] 0.011 | saracatinib 0.01 | sotrastaurin 0.013 | alvocidib -0.044 | Tubastatin A -0.038 | [8] 0.017 | defactinib 0.006 | rucaparib 0.054 | [9] -0.026 | encorafenib -0.022 | [10] 0.035

HSP90AB1 (UniProt P08238)
inactive: [1] -0.115 | volasertib -0.057 | [2] 0.065 | epoxomicin 0.037 | [3] 0 | [4] -0.059 | [5] 0.003 | rosiglitazone 0.008 | [6] -0.065 | [7] 0.09 | saracatinib 0.013 | sotrastaurin -0.01 | alvocidib -0.075 | Tubastatin A -0.002 | [8] 0.045 | defactinib -0.029 | rucaparib -0.065 | [9] -0.001 | encorafenib 0.04 | [10] -0.003
